Results are given in words; binding and its absence hold for the method and conditions named. In cells and extracts the contact can be indirect. Some entries that bind do so weakly or less than the wild type.
Target: T1, Imd (immune deficiency adaptor protein), expressed in S2 cells (Drosophila melanogaster) (UniProt Q7K4Z4)
T1 sequence: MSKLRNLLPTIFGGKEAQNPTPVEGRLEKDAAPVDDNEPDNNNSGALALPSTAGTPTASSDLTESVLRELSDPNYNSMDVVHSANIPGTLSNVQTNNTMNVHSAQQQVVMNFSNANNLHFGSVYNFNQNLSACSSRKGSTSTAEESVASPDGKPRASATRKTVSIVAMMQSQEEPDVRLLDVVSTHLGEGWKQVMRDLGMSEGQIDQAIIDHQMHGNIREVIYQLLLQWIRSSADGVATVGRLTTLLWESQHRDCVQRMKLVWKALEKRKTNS
Assay: co-IP; S2 cells co-transfected with IMD and CG4968 plasmids, lysed after 48 h (150 mM NaCl, 50 mM Tris-HCl pH 7.5, 10% glycerol, 0.5% Triton X-100); Anti-Flag affinity gel, 4 °C, 4 h; immunoblot

- binding: binds
B1: CG4968 (OTU-type deubiquitinase), expressed in S2 cells (enzyme, UniProt Q9VL00 1-262)
chain: MEPFTHNDGNRDELIIQQKRDIEKEISDTTPLVSEQLPLTCLYAEYSGDEIFTAKIQDLSKKYKFIRRTRPDGNCFFRAFAYSYLEYLISNTSAYQEFKKLAEESKEKLVQLGFPSFTLEDFHETFMEVIQRVSPDNAGGHSTVQDELHKIFNEQGYSDYVVVYLRLITSGKLQEEADFYQNFIEGDLTIEAFRHLEVEPMYKESDHIHIIALCTALGAGVRVEYLDRGEGGTVKAHDFPEGSEPRIYLIYRPGHYDILYPN
